In patent US8329640B2, “Peptides with improved properties having the biological activity of vasoactive intestinal peptide (VIP) and their use for the treatment of lung diseases” (priority 2007, dated 2012):
Not every detail of the peptide structures is certain; ends, links or a residue may be inferred.

How the values were obtained:
COPD patients = experiment: Phase II double-blind, randomized, placebo-controlled clinical trial of inhaled VIP in COPD
Experimental: Chronic obstructive pulmonary disease (COPD) is characterised by progressive airflow limitation associated with chronic inflammation. […] The efficacy and safety of VIP in patients was assessed with moderate to severe COPD.
The present double-blind, randomized, placebo-controlled study was undertaken in an outpatient setting. COPD patients (n=34) were randomly assigned VIP 50 μg (n=17), or placebo (n=17), given per inhalation, 4 times daily for 12 weeks. VIP serum concentration was measured in all patients. Primary outcomes were health-related quality of life and exercise capacity. Secondary outcomes included the lung function parameters and COPD exacerbations.

CF patients = experiment: Lung function of CF patients before and after 3 months inhaled VIP; format: in vivo, human; details: for FEV1 / FEV1/VC / TLC / VC: patient, 19 J., F., CF
[1] = test system: monocytes after LPS stimulation; experiment: Nitrite (NO) production by monocytes/macrophages after LPS stimulation; format: cell-based, human
Experimental: Peripheral blood mononuclear cells were isolated from whole venous blood from 12 stable COPD patients and 12 healthy probands by Ficoll density gradient centrifugation. Monocytes were differentiated in RPMI-1640 medium supplemented with 5% FCS, antibiotics and 10^−8 M 1,25-dihydroxycholecalciferol (Sigma) in a humidified atmosphere with 5% CO2 at 37° C.
For infection simulation, macrophage stimulation and experimental in vivo treatment the differentiated cells were incubated either with LPS, with LPS and SEQ ID No.:1 (VIP) or SEQ ID No.:2 (A-15) or SEQ ID No.:3 (A-18), or with medium alone for control.
To test the hypothesis whether or not the macrophages utilize the VIP-signaling pathway to modulate and limit the immune response, the inflammation reaction in vitro was stimulated and NO (produced by iNOS) production by the cells was measured under inflammation and under in vitro therapy with VIP and the peptides according to the invention (SEQ ID Nos 2 and 3). NOS increased dramatically by LPS after 24 hours. […] This anti-inflammatory response was better by both VIP-analogues according to SEQ ID Nos. 2 and 3.

PASMC = experiment: cAMP measurement in PASMC (cyclic AMP ELISA); format: cell-based; details: for cAMP +/− SD: 20 min
Experimental: Effects of VIP and the peptides according to the invention are mediated by specific G-protein coupled receptors. Three distinct receptor subtypes, with differing affinity for the peptides, have been cloned and characterized as receptors 1 and 2 (VPAC1 and VPAC2) and pituitary adenylate cyclase activating polypeptide receptor (PAC1). The secondary messenger is cyclic adenosine mono phosphate (CAMP). […] Cells derived from pulmonary artery (PASMC) were seeded in 24 well plates and cultured in DMEM containing 10% fetal calf serum (Gibco lifesciences, Karlsruhe), Penicillin (Gibco lifesciences, Karlsruhe, 100 U/ml) Streptomycin (Gibco lifesciences, Karlsruhe, 100 U/ml) to confluency. […] The incubation is stopped by rinsing cells with PBS and immediate lysis of cells with HCl (0.1N) containing 3-isobutyl 1-methyl xanthine (500 μM) to block further hydrolysis of cAMP. Lysed cells were centrifuged and the supernatants assayed for cAMP using an commercially available cyclic AMP ELISA (Assay Designs, Inc., Michigan, distribution by Bio Trend, Köln).

[2] = VIP 50 μg per inhalation 4 times daily for 12 weeks, compared with placebo, p<0.01
[3] = VIP group, after treatment (12 weeks)
[4] = Measuring2, 200 μg VIP daily per inhalation, 3 months

For `CC[C@H](C)[C@H](NC(=O)[C@H](CO)NC(=O)[C@H](CC(N)=O)NC(=O)[C@H](CC(C)C)NC(=O)[C@H](Cc1ccc(O)cc1)NC(=O)[C@H](CCCCN)NC(=O)[C@H](CCCCN)NC(=O)[C@@H](NC(=O)[C@H](C)NC(=O)[C@H](CCSC)NC(=O)[C@H](CCC(N)=O)NC(=O)[C@H](CCCCN)NC(=O)[C@H](CCCNC(=N)N)NC(=O)[C@H](CC(C)C)NC(=O)[C@H](CCCNC(=N)N)NC(=O)[C@@H](NC(=O)[C@H](Cc1ccc(O)cc1)NC(=O)[C@H](CC(N)=O)NC(=O)[C@H](CC(=O)O)NC(=O)[C@@H](NC(=O)[C@H](Cc1ccccc1)NC(=O)[C@@H](NC(=O)[C@H](C)NC(=O)[C@H](CC(=O)O)NC(=O)[C@H](CO)NC(=O)[C@@H](N)Cc1c[nH]cn1)C(C)C)[C@@H](C)O)[C@@H](C)O)C(C)C)C(=O)N[C@@H](CC(C)C)C(=O)N[C@@H](CC(N)=O)C(N)=O` [VIP], the “Post-bronchodilator forced expiratory volume in 1 second (FEV1) improvement” value (COPD patients; [2]) was 0.107 L, the “vital capacity (IVC) improvement” value (COPD patients; [2]) was 0.160 L and the “SF-36 MHS after treatment” value (COPD patients; [3]) was 47.92 ± 2.18. For the same compound, the “SF-36 PHS after treatment” value (COPD patients; [3]) was 45.23 ± 2.07, the “SF-36 MHS at baseline” value (COPD patients; VIP group, at baseline) was 44.45 ± 2.41 and the “SF-36 PHS at baseline” value (COPD patients; VIP group, at baseline) was 41.15 ± 2.26. For the same compound, the “Borg dyspnea scale result after exercise” value (COPD patients; after exercise, placebo 0.43) was −1.07 units, the “Borg dyspnea scale result at rest” value (COPD patients; at rest, placebo 0.21) was −0.20 units and the “exercise capacity increase, six minutes walking test” value (COPD patients; baseline to day 90, p<0.01, placebo −8.6 m) was 32.7 m. For the same compound, the “improvement in quality of life (SF-36)” value (COPD patients; change from baseline to endpoint, placebo 0.20) was 4.08, the FEV1 (CF patients; Measuring1) was 0.95 and the FEV1/VC (CF patients; Measuring1) was 43. The TLC (CF patients; Measuring1) was 5.54, the VC (CF patients; Measuring1) was 2.21 and the FEV1 (CF patients; [4]) was 1.10. The FEV1/VC (CF patients; [4]) was 48, the TLC (CF patients; [4]) was 5.40 and the VC (CF patients; [4]) was 2.27. The “Post-bronchodilator FEV1 and vital capacity (VC) change with VIP treatment” value (CF patients; two CF patients, 200 μg VIP daily per inhalation, after 3 months) was “significantly improved”, the “Nitrit +/− SD” value ([1]; LPS 100 nM + peptide 100 nM, 24 hours, no LPS 48, LPS alone 75) was 31 µmol and the “anti-inflammatory response (NO production) on simultaneous incubation with LPS” value ([1]; after 24 hours, analogues compared with VIP) was “marked anti-inflammatory response”. For the same compound, the “cyclic AMP content of PASMC, effect in words” value (PASMC; analogues compared with VIP) was “increases”, the “cAMP +/− SD” value (PASMC; peptide 1 nM + IBMX 500 μM) was 20.11 pmol/mL and the “cAMP +/− SD” value (PASMC; peptide 1 nM, without IBMX) was 11.18 pmol/mL. The “cAMP +/− SD” value (PASMC; peptide 10 nM + IBMX 500 μM) was 23.52 pmol/mL, the “cAMP +/− SD” value (PASMC; peptide 10 nM, without IBMX) was 13.80 pmol/mL and the “cAMP +/− SD” value (PASMC; peptide 100 nM + IBMX 500 μM) was 27.78 pmol/mL. The “cAMP +/− SD” value (PASMC; peptide 100 nM, without IBMX) was 19.50 pmol/mL.
